Some entries repeat one wording, which the source may state once for all of them.
Assay: Inverse micelle (polymer 1) extraction of a myoglobin tryptic digest at pH 7.1, MALDI-MS
Format: physicochemical
From the text: All of the peptides with pI values above 7.1 are extracted effectively, and with only one exception, peptides with pI values below 7.1 are not extracted effectively. Among the peptide fragments tested, the only exception is the peptide N140-G153 (m/z 1553), a peptide fragment that has a pI below 7.1 and still has K>1. […] One of two reasons could explain the observed results: First, because the pH of the solution is so close to the pI of this peptide, a significant fraction of the peptide is positively-charged at pH 7.1 and therefore extracted. Alternatively, the theoretically calculated pI value may be low.
A typical biphasic extraction procedure involves mixing 200 μL of a toluene solution of homopolymer 1 or 2 (1×10^−4 M) with 1 mL of an aqueous solution of peptide(s) that was buffered to pH ˜7.0 with 50 mM Tris/TrisHCl. The mixture is vortexed for 10 to 120 minutes and centrifuged at 12000 rpm for 30-40 minutes to break the resulting emulsion and separate the organic and aqueous layers. The top (organic) layer is then recovered and dried to obtain a solid residue. The residue is redissolved into 10 μL of THF and sonicated for 10 seconds to promote solubilization. Finally, 20 μL of an α-CHCA matrix solution (0.16 Min 60:40:0.3% THF:H2O:TFA) are added to the sample for a final volume of 30 μL. For MALDI-MS analysis the samples are applied to the target using the dried-droplet method, where 1 μL of the sample/matrix mixture is spotted on a stainless-steel target, and the solvent is evaporated at room temperature. The residual aqueous phase (˜1 mL) after extraction is also examined by MALDI-MS. […]
Extraction of the myoglobin digest was done in a manner similar to described above. 1 mL aliquots of a 1×10^−6 M protein digest were buffered at pH 7.1 with 50 mM TRIS, mixed with 200 μL of a toluene solution of homopolymer 1 (1×10^−4 M), extracted, and analyzed by MALDI-MS as detailed above. […]

Row | Sequence | detection of the fragment in the organic phase after extraction versus the original digest
1 | HGTVVLTALGGILKKK (listed as Equus caballus) [tryptic fragment of equine myoglobin] | after extraction they are readily observable
2 | ALELFRNDIAAKYK (ALELFRNDLAAKYK; listed as Equus caballus) [tryptic fragment of equine myoglobin] | after extraction they are readily observable
3 | KHGTVVLTALGGILKK (listed as Equus caballus) [tryptic fragment of equine myoglobin] | after extraction they are readily observable

From patent US8969026B2, “Polymeric reverse micelles as selective extraction agents and related methods of MALDI-MS analysis” (University of Massachusetts, priority 2007, dated 2015)
